About 7,700 (2.3%) of roughly 330,000 compounds were called active. Inconclusive means that the source gave no clear call. Such entries were picked first, then a sample of the others. Calls come from the whole dose curve; as a rule, active = well fitted inhibition curve with a large enough effect; inconclusive = small, poorly fitted or top-dose-only effect, or effect the other way; inactive = flat fitted curve, though single readings scatter. Potencies of inconclusive entries are doubtful fits and often do not repeat.
test: qHTS screen for small molecules that inhibit ELG1-dependent DNA repair in human embryonic kidney (HEK293T) cells expressing luciferase-tagged ELG1; conditions: HEK293T ELG1-luciferase reporter, luminescence, 16 h, DNA damage induced by 5-fluorouridine; series mostly up to 46.1 µM; note: nearly all actives have a fitted effect of over 55% in size
How it was run: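 Step one: seed 2,000 cells per well. Step two: pin-transfer compound or DMSO alongside 5-fluorouridine. Step three: incubate 16 hr, 37 °C, 5% CO2. Step four: add ONE-Glo, wait 30 min, read luminescence.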
Potency is the fitted concentration of half-maximal effect.

Compound	Potency
Cc1ccc(-n2c(SCC(=O)NCc3ccc4c(c3)OCO4)nnc2-c2cccnc2)c(C)c1	inconclusive: 20.6 µM [inhibitor, partial curve, poor fit]
COc1ccc(-n2nc(C(=O)NCC(=O)NCc3ccco3)c3ccccc3c2=O)cc1Cl	inconclusive: 16.4 µM [inhibitor, partial curve]
Cc1cccc2c1-c1sc(C(=O)N3CCc4ccccc4C3)cc1CO2	inconclusive: 29.1 µM [inhibitor, single point]
CC(C)CN(CCNC(=O)c1cn(C)c2ccc(S(=O)(=O)N3CCCC3)cc2c1=O)CC(C)C	inconclusive: 5.8 µM [inhibitor, partial curve, poor fit]
COc1ccc(NC(=O)N2CCCC(c3nc(-c4ccc(C(C)C)cc4)no3)C2)cc1 (configuration not stated)	inconclusive: 29.1 µM [inhibitor, single point]
O=C(Cn1cnc2c(nnn2-c2ccccc2)c1=O)N1CCCc2ccccc21	inconclusive: 20.6 µM [inhibitor, partial curve, poor fit]
COc1cc2c(cc1OC)-c1cc(Nc3ccccc3Br)nc(=O)n1CC2	inconclusive: 18.3 µM [inhibitor, partial curve, poor fit]
Cc1ccc(C(=O)N2CCCC(N3CCN(c4cccc(C(F)(F)F)c4)CC3)C2)s1 (configuration not stated)	inconclusive: 11.6 µM [inhibitor, partial curve]
Cc1c(C(N)=O)sc2ncn(CC(=O)N(C)C3CCCCC3)c(=O)c12	inactive
CCCC(=O)Nc1ccc(NC(=O)C2CC2)cn1	inconclusive: 25.9 µM [activator, single point]
Cc1[nH]nc2c1C(=O)CC(C)(C)C2	inconclusive: 6.51 µM [activator, partial curve, poor fit]
Cc1ccc(NS(=O)(=O)Cc2ccccc2)nc1	inconclusive: 20.6 µM [activator, single point]
Cc1ccc(C)c2[nH]c(=O)c(CCNC(=O)c3ccc(S(=O)(=O)N(C)C)cc3)cc12	inconclusive: 25.9 µM [inhibitor, partial curve, poor fit]
Cc1ccc(S(=O)(=O)N(C)CC(=O)Nc2ccc(C)cn2)cc1	inconclusive: 4.61 µM [activator, single point]
Cc1cccc2nc(CSc3nc4[nH]ncc4c(=O)n3-c3cccc(Cl)c3)cc(=O)n12	active: 20.6 µM
Cn1c(NCc2c[nH]c3ccccc23)nc2ccccc21	inconclusive: 11.2 µM [activator, partial curve, poor fit]
O=C(NC1CCCCCCC1)c1ccc(F)c(S(=O)(=O)N2CCOCC2)c1	inactive
O=C(CN(C(=O)CCC(=O)Nc1nccs1)c1ccc(F)cc1)NCCc1ccccc1	inconclusive: 10.3 µM [inhibitor, partial curve, poor fit]
c1ccc(-c2cn3c(n2)CCC3)cc1	inconclusive: 20.6 µM [activator, single point]
COc1ccc(Cl)cc1NC(=O)C(C)N1CCN(C/C=C/c2ccccc2)CC1 (configuration not stated)	inconclusive: 20.6 µM [inhibitor, single point]
O=S(=O)(Cc1ccccc1Cl)N1CCN(Cc2ccc3c(c2)OCO3)CC1	inconclusive: 18.4 µM [inhibitor, single point]
CC(=NCc1ccco1)c1c(C)[nH]n(-c2nc3ccccc3s2)c1=O	inconclusive: 5.17 µM [activator, partial curve]
O=C(/C=C/c1ccc([N+](=O)[O-])cc1)c1cccnc1	inconclusive: 29.1 µM [inhibitor, single point]

Compound	Potency
Cc1ccc(S(=O)(=O)N2CCC(C(=O)Nc3ccc4c(c3)COC4=O)CC2)cc1	inactive
CCn1cc(C(=O)N(C)c2ccc(OC)cc2OC)c2cc(OC)c(OC)cc2c1=O	active: 14.6 µM
COc1ccc(CNC(=O)COC(=O)CCOc2ccc(C)cc2)cc1OC	inactive
COc1ccc(-c2cc(-c3ccccc3)c(C#N)c(SCC(=O)Nc3ncc(C)s3)n2)cc1	inconclusive: 14.6 µM [inhibitor, partial curve, poor fit]
Cn1c(SCc2ccccc2F)nc2cccnc21	inconclusive: 25.9 µM [activator, single point]
CCCCN(CC)CCCNC(=O)c1ccc(CS(=O)(=O)c2c(Cl)cccc2Cl)o1	inactive
C=CCn1cccc(C(=O)Nc2cc(OC)c(OC)c(OC)c2)c1=O	inactive
COc1ccccc1/C=N/NC(=O)CO	inactive
O=C(NCc1ccc2c(c1)CCO2)Nc1ccccc1	inconclusive: 29.1 µM [activator, single point]
CC(=O)O/N=C(\N)c1ccc(-c2csnn2)cc1	inconclusive: 23.1 µM [activator, single point]
O=C(N[C@@H](Cc1ccccc1)C(=O)N[C@@H](Cc1ccccc1)C(=O)O)OCc1ccccc1	inactive
O=C(COC(=O)Cn1[nH]c(=O)c2ccccc2c1=O)NNC(=O)c1ccc(Br)cc1	inactive
CC1=CC(C)(C)NC(=S)N1NC(=O)c1ccccc1Cl	inconclusive: 29.1 µM [activator, single point]
CCOC(=O)c1cccc(NC(=O)CCc2ccccc2)c1	inconclusive: 16.4 µM [activator, single point]
c1ccc2c(c1)Nc1ccncc1S2	active: 18.3 µM
O=C(/C=C/c1cccc([N+](=O)[O-])c1)c1cccs1	inconclusive: 29.1 µM [inhibitor, single point]
O=C1c2ccccc2C2=Nc3ccccc3SC(c3ccccc3F)C12 (configuration not stated)	inconclusive: 20.6 µM [inhibitor, single point]
CC(=O)N[C@@H](C)c1nc2ccccc2n1CCCN1CCN(c2nc(-c3ccc(C)cc3)cs2)CC1	inconclusive: 29.1 µM [inhibitor, single point]
O=C1CCCc2nc(N3CCN(Cc4ccccc4)CC3)ncc21	inconclusive: 18.4 µM [inhibitor, partial curve, poor fit]
CN(C)S(=O)(=O)c1cccc(-c2cn3cc(Cl)ccc3n2)c1	inactive
COc1ccc(-c2cc(C(=O)OCC(=O)c3c(N)n(C)c(=O)n(C)c3=O)c3ccccc3n2)cc1	inactive
O=C1NC(c2ccc(Cl)cc2)=COc2ccccc21	inconclusive: 7.3 µM [activator, full curve, poor fit]
COC(=O)c1cc(Br)c(=O)n(-c2ccc(F)cc2)c1	inconclusive: 29.1 µM [activator, single point]

Compound	Potency
O[C@@H]1CN(Cc2ccc(-n3cccn3)cc2)CC[C@H]1N1CCN(c2ccccc2F)CC1	inconclusive: 6.51 µM [inhibitor, single point]
CCc1nnc(NC(=O)OCc2ccccc2)s1	inconclusive: 11.6 µM [activator, partial curve]
Cc1ccc(Nc2nc3ccccc3n3cnnc23)cc1C	inconclusive: 20.6 µM [activator, partial curve]
CCOC(=O)c1ccc2ncc(C(=O)OCC)c(NCCN3CCOCC3)c2c1	inconclusive: 23.1 µM [inhibitor, single point]
COCCNC(=S)N(CCc1c(C)[nH]c2ccc(OC)cc12)Cc1ccco1	inconclusive: 16.4 µM [inhibitor, partial curve, poor fit]
C=CCn1c(SCc2ccccc2Cl)nnc1-c1sc2nc(C)cc(C)c2c1N	active: 20.6 µM
CC(C)CC(NC(=O)C1CCC(=O)N1C(=O)OCc1ccccc1)C(=O)NC(Cc1ccccc1)C(N)=O (configuration not stated)	inactive
O=C(C1CCC(CNS(=O)(=O)c2cccc3nsnc23)CC1)N1CC=C(c2ccccc2)CC1 (configuration not stated)	active: 20.6 µM
COc1ccc(C2=NNC(c3cc(Cl)cc4c3OCOC4)C2)c(O)c1 (configuration not stated)	inconclusive: 6.51 µM [inhibitor, partial curve]
COC(=O)c1ccc(COc2ccccc2/C=N/O)o1	inconclusive: 5.8 µM [activator, partial curve]
CC(C)[C@H](NC(=O)OC(C)(C)C)C(=O)N1CCC(C(=O)N[C@@H](C)C(=O)Nc2ccc(F)cc2)CC1	inactive
O=C(COC(=O)C1CC2C=CC1C2)Nc1ccccc1F (configuration not stated)	inconclusive: 29.1 µM [activator, single point]
CC(=O)N1CCc2cc(NC(=O)c3ccc(C)cc3)ccc21	inconclusive: 4.61 µM [activator, partial curve]
CCCCCCn1c(N2CCN(c3cccc(Cl)c3)CC2)nc2c1c(=O)[nH]c(=O)n2C	inconclusive: 29.1 µM [inhibitor, single point]
CCCN(CC(=O)Nc1ccccc1C)C(=O)c1cn2ccccc2n1	inconclusive: 5.62 µM [inhibitor, single point]
Cn1c(=O)c(=O)n(C)c2cc([N+](=O)[O-])c([N+](=O)[O-])cc21	inconclusive: 23.1 µM [activator, single point]
CC(=O)OCC1=C(C(=O)O)N2C(=O)C(NC(=O)c3ccc(COc4cccc(Cl)c4Cl)o3)C2SC1 (configuration not stated)	inactive
COc1ccc(NC(=O)c2cccc(S(=O)(=O)N3CCN(C)CC3)c2)c(OC)c1	inactive
NS(=O)(=O)c1ccc(NC(=S)N2CCC(O)CC2)cc1	inactive
Clc1cccc(N/N=C/c2ccc(N3CCOCC3)cc2)c1	inconclusive: 18.4 µM [activator, partial curve]
COc1ccc(-n2nnnc2SCC(=O)Nc2ccc3c(c2)OCCO3)cc1OC	inconclusive: 11.6 µM [inhibitor, partial curve, poor fit]

Reformatted: two of the compounds above.
Compound | Potency
NS(=O)(=O)c1ccc(NC(=S)N2CCC(O)CC2)cc1 | inactive
Clc1cccc(N/N=C/c2ccc(N3CCOCC3)cc2)c1 | inconclusive: 18.4 µM [activator, partial curve]

Reference: PubChem BioAssay AID504467 (National Center for Advancing Translational Sciences (NCATS), 2011)
